From paper doi:10.1101/2019.12.12.873810 come the findings set out here.

Results are given in words; binding and its absence hold for the method and conditions named. In cells and extracts the contact can be indirect. Some results given as binding are weak or reduced against the parent protein; the word gives no strength.

To fix the notation:
B1: RDGB^LNS2Δ (domain or fragment, UniProt P43125 1-1000)
chain: MLIKEYRIPLPLTVEEYRIAQLYMIAKKSREESHGEGSGVEIIINEPYKDGPGGNGQYTKKIYHVGNHLPGWIKSLLPKSALTVEEEAWNAYPYTRTRYTCPFVEKFSLDIETYYYPDNGYQDNVFQLSGSDLRNRIVDVIDIVKDQLWGGDYVKEEDPKHFVSDKTGRGPLAEDWLEEYWREVKGKKQPTPRNMSLMTAYKICRVEFRYWGMQTKLEKFIHDVALRKMMLRAHRQAWAWQDEWFGLTIEDIRELERQTQLALAKKMGGGEECSDDSVSEPYVSTAATAASTTGSERKKSAPAVPPIVTQQPPSAEASSDEEGEEEEDDDEDENDAIGTGVDLSANQGGSAQRSRSQSIQMAQKGKFGSKGALHSPVGSAHSFDLQVANWRMERLEVDSKSNSDEEFFDCLDTNETNSLAKWSSLELLGEGDDSPPPHGGPSSAASVGGRGNSRQEDSIFNQDFLMRVASERGNKRQLRSSASVDRSHDSSPPGSPSTPSCPTTILILVVHAGSVLDAASELTAKKSDVTTFRGSFEAVMRQHYPSLLTHVTIKMVPCPSICTDALGILSSLSPYSFDASPSAADIPNIADVPIGAIPLLSVASPEFHETVNKTVAAANIVYHEFLKSEEGHGFSGQIVMLGDSMGSLLAYEALCRSNGSQPGTASGASNSGGDAATNINTHNPLSPRNSRLDDDERFIEADLDAKRLLVAPSPRRRRSSSSSDSRATKLDFEVCDFFMFGSPLSVVLAARKLHDAKAALPRPNCHQVYNLFHPTDPIASRLEPLLSARFSILAPVNVPRYAKYPLGNGQPLHLLEVIQSHPQHFNDGNNLLAGRRLSDASMQSTISGLIENVSLSTIHALQNKWWGTKRLDYALYCPEGLSNFPAHALPHLFHASYWESPDVIAFILRQIGKFEGIPFVGSNDDKDNASFHPGQPREKWIKKRTSVKLKNVAANHRANDVIVQEGREQRLNARFMYGPLDMITLHGEKVDVHIMKDPPA
B2: RDGB^(DDHD-LNS2)Δ (domain or fragment, UniProt P43125 1-655)
chain: MLIKEYRIPLPLTVEEYRIAQLYMIAKKSREESHGEGSGVEIIINEPYKDGPGGNGQYTKKIYHVGNHLPGWIKSLLPKSALTVEEEAWNAYPYTRTRYTCPFVEKFSLDIETYYYPDNGYQDNVFQLSGSDLRNRIVDVIDIVKDQLWGGDYVKEEDPKHFVSDKTGRGPLAEDWLEEYWREVKGKKQPTPRNMSLMTAYKICRVEFRYWGMQTKLEKFIHDVALRKMMLRAHRQAWAWQDEWFGLTIEDIRELERQTQLALAKKMGGGEECSDDSVSEPYVSTAATAASTTGSERKKSAPAVPPIVTQQPPSAEASSDEEGEEEEDDDEDENDAIGTGVDLSANQGGSAQRSRSQSIQMAQKGKFGSKGALHSPVGSAHSFDLQVANWRMERLEVDSKSNSDEEFFDCLDTNETNSLAKWSSLELLGEGDDSPPPHGGPSSAASVGGRGNSRQEDSIFNQDFLMRVASERGNKRQLRSSASVDRSHDSSPPGSPSTPSCPTTILILVVHAGSVLDAASELTAKKSDVTTFRGSFEAVMRQHYPSLLTHVTIKMVPCPSICTDALGILSSLSPYSFDASPSAADIPNIADVPIGAIPLLSVASPEFHETVNKTVAAANIVYHEFLKSEEGHGFSGQIVMLGDSMGSLLAYEALC
B3: RDGB^(USR1-LNS2)Δ (domain or fragment, UniProt P43125 1-472)
chain: MLIKEYRIPLPLTVEEYRIAQLYMIAKKSREESHGEGSGVEIIINEPYKDGPGGNGQYTKKIYHVGNHLPGWIKSLLPKSALTVEEEAWNAYPYTRTRYTCPFVEKFSLDIETYYYPDNGYQDNVFQLSGSDLRNRIVDVIDIVKDQLWGGDYVKEEDPKHFVSDKTGRGPLAEDWLEEYWREVKGKKQPTPRNMSLMTAYKICRVEFRYWGMQTKLEKFIHDVALRKMMLRAHRQAWAWQDEWFGLTIEDIRELERQTQLALAKKMGGGEECSDDSVSEPYVSTAATAASTTGSERKKSAPAVPPIVTQQPPSAEASSDEEGEEEEDDDEDENDAIGTGVDLSANQGGSAQRSRSQSIQMAQKGKFGSKGALHSPVGSAHSFDLQVANWRMERLEVDSKSNSDEEFFDCLDTNETNSLAKWSSLELLGEGDDSPPPHGGPSSAASVGGRGNSRQEDSIFNQDFLMRVASER
B4: Retinal Degeneration B (RDGB), wild type (protein, UniProt P43125 1-1259)
chain: MLIKEYRIPLPLTVEEYRIAQLYMIAKKSREESHGEGSGVEIIINEPYKDGPGGNGQYTKKIYHVGNHLPGWIKSLLPKSALTVEEEAWNAYPYTRTRYTCPFVEKFSLDIETYYYPDNGYQDNVFQLSGSDLRNRIVDVIDIVKDQLWGGDYVKEEDPKHFVSDKTGRGPLAEDWLEEYWREVKGKKQPTPRNMSLMTAYKICRVEFRYWGMQTKLEKFIHDVALRKMMLRAHRQAWAWQDEWFGLTIEDIRELERQTQLALAKKMGGGEECSDDSVSEPYVSTAATAASTTGSERKKSAPAVPPIVTQQPPSAEASSDEEGEEEEDDDEDENDAIGTGVDLSANQGGSAQRSRSQSIQMAQKGKFGSKGALHSPVGSAHSFDLQVANWRMERLEVDSKSNSDEEFFDCLDTNETNSLAKWSSLELLGEGDDSPPPHGGPSSAASVGGRGNSRQEDSIFNQDFLMRVASERGNKRQLRSSASVDRSHDSSPPGSPSTPSCPTTILILVVHAGSVLDAASELTAKKSDVTTFRGSFEAVMRQHYPSLLTHVTIKMVPCPSICTDALGILSSLSPYSFDASPSAADIPNIADVPIGAIPLLSVASPEFHETVNKTVAAANIVYHEFLKSEEGHGFSGQIVMLGDSMGSLLAYEALCRSNGSQPGTASGASNSGGDAATNINTHNPLSPRNSRLDDDERFIEADLDAKRLLVAPSPRRRRSSSSSDSRATKLDFEVCDFFMFGSPLSVVLAARKLHDAKAALPRPNCHQVYNLFHPTDPIASRLEPLLSARFSILAPVNVPRYAKYPLGNGQPLHLLEVIQSHPQHFNDGNNLLAGRRLSDASMQSTISGLIENVSLSTIHALQNKWWGTKRLDYALYCPEGLSNFPAHALPHLFHASYWESPDVIAFILRQIGKFEGIPFVGSNDDKDNASFHPGQPREKWIKKRTSVKLKNVAANHRANDVIVQEGREQRLNARFMYGPLDMITLHGEKVDVHIMKDPPAGEWTFLSTEVTDKNGRISYSIPDQVSLGYGIYPVKMVVRGDHTSVDCYMAVVPPLTECVVFSIDGSFTASMSVTGRDPKVRAGAVDVCRHWQELGYLLIYITGRPDMQQQRVVSWLSQHNFPHGLISFADGLSTDPLGHKTAYLNNLVQNHGISITAAYGSSKDISVYTNVGMRTDQIFIVGKVGKKLQSNATVLSDGYAAHLAGLQAVGGSRPAKGNARMVIPRGCFNLPGQTANPRRRRYLERKTVSSCCLMVFQTT

The test has as its target T1, dVAP-A (Drosophila (endogenous in fly heads)) (UniProt Q9W4N8).
T1 sequence: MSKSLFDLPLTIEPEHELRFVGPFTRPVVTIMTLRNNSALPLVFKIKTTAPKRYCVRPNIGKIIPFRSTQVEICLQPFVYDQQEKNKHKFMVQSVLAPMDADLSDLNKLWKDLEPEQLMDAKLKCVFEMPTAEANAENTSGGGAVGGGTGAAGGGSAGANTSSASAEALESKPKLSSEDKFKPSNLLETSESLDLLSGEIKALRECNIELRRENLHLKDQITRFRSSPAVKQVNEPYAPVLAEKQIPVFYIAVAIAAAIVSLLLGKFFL
Nature of the test: co-IP.
As to B1, the binding result is recorded as “binds”.

For B2, the binding entry is given as “binds”. For B3, the binding entry is on record as “no binding”. The entry for B4 is “binds”.
